In article doi:10.1101/2025.05.11.653314:
These are yes or no findings as the source states them, for the method shown.

Experiments:
[1] = molecular target: T1, U. parvum ScpA (Ureaplasma parvum) (UniProt Q9PQE6); test: cross-linking
T1 sequence: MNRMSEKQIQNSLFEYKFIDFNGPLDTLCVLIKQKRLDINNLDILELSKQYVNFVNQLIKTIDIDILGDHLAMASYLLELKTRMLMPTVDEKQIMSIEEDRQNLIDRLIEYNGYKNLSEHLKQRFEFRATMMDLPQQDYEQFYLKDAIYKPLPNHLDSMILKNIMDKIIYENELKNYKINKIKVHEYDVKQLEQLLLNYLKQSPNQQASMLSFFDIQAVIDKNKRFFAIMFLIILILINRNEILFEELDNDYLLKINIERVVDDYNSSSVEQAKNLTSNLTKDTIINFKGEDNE

[2] = molecular target: U. parvum ScpB (Ureaplasma parvum) (UniProt Q9PQE5); test: cross-linking

binding [1]: no binding | binding [2]: no binding
B1: U. parvum ScpB (protein, UniProt Q9PQE5 1-364)
chain: MNNDKKNKKNLLNNELDLAKYTLHNLSADNNDDENELELDWDGIDDEIIDNNQQIYQKKHINHKTRLFIEKDDKLNNHEQIESGNEIINQPKALSGQDFLEFVNSKLVQKNNNFKQNSKFLQNQLTNHELLREKLKPQEDFNKIFKTKDINVTEEIKIKDVKKNSSVSFRNSFNINDLNQNQITNIKSIIDSTLFLAGEEGVSLQDLKRTTGLNESSQLKTILNQLQKDYDVDDSGLVLVQFGEKFKLLTQSKNKDALSKFVTTSFRTPLSQRNLETLAIIAYNQPTTRAKIQAIRDRDPKPAIDALLKLNLIIEAGRQDTPGHPILYTVSQKFYDLFGIRNLTELPRLNKEINEFSPIDESTN
